# Reference: the supplement of paper PMC8728848
# The list shows a part of the results.
# B1: CRT-1 (Homo sapiens), P27797 (protein)
# chain: MLLSVPLLLGLLGLAVAEPAVYFKEQFLDGDGWTSRWIESKHKSDFGKFVLSSGKFYGDEEKDKGLQTSQDARFYALSASFEPFSNKGQTLVVQFTVKHEQNIDCGGGYVKLFPNSLDQTDMHGDSEYNIMFGPDICGPGTKKVHVIFNYKGKNVLINKDIRCKDDEFTHLYTLIVRPDNTYEVKIDNSQVESGSLEDDWDFLPPKKIKDPDASKPEDWDERAKIDDPTDSKPEDWDKPEHIPDPDAKKPEDWDEEMDGEWEPPVIQNPEYKGEWKPRQIDNPDYKGTWIHPEIDNPEYSPDPSIYAYDNFGVLGLDLWQVKSGTIFDNFLITNDEAYAEEFGNETWGVTKAAEKQMKDKQDEEQRLKEEEEDKKRKEEEEAEDKEDDEDKDEDEEDEEDKEEDEEEDVPGQAKDEL
# Legend:
# Experiment in all cases: glycan array binding signal (z-score within array); higher = stronger binding
# Details in all cases: glycan notation: IUPAC condensed, linker removed
# [1] = molecular target: GlcNAc(a1-4)Gal(b1-4)GlcNAc(b1-3)Gal(b1-4)GlcNAc(b1-3)Gal(b1-4)GlcNAc
# Outline: (§1)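 The binding signal is a Z-score computed within each array and averaged over linkers. Arrays of the same protein sequence at different concentrations or buffers were also averaged together. Data originate from 3228 arrays in the Consortium for Functional Glycomics database, kept only where the protein sequence was available.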
# [2] = molecular target: GlcNAc(a1-4)Gal(b1-4)GlcNAc(b1-3)Gal(b1-4)[Fuc(a1-3)]GlcNAc(b1-3)Gal(b1-4)[Fuc(a1-3)]GlcNAc
# Outline: as §1
# [3] = molecular target: GlcNAc(a1-6)Gal(b1-4)GlcNAc
# Outline: as §1
# [4] = molecular target: GlcNAc(b1-2)Gal(b1-3)GalNAc
# Outline: as §1
# [5] = molecular target: GlcNAc(b1-2)Man(a1-3)[GlcNAc(b1-2)Man(a1-6)]Man(b1-4)GlcNAc(b1-4)GlcNAc
# Outline: as §1
# [6] = molecular target: GlcNAc(b1-2)Man(a1-3)[GlcNAc(b1-2)Man(a1-6)]Man(b1-4)GlcNAc(b1-4)[Fuc(a1-6)]GlcNAc
# Outline: as §1
# [7] = molecular target: GlcNAc(b1-2)Man(a1-3)[GlcNAc(b1-4)][GlcNAc(b1-2)Man(a1-6)]Man(b1-4)GlcNAc(b1-4)GlcNAc
# Outline: as §1
# [8] = molecular target: GlcNAc(b1-2)Man(a1-3)[GlcNAc(b1-4)][GlcNAc(b1-2)Man(a1-6)]Man(b1-4)GlcNAc(b1-4)[Fuc(a1-6)]GlcNAc
# Outline: as §1
# [9] = molecular target: GlcNAc(b1-2)[GlcNAc(b1-4)]Man(a1-3)[GlcNAc(b1-2)Man(a1-6)]Man(b1-4)GlcNAc(b1-4)GlcNAc
# Outline: as §1
# [10] = molecular target: GlcNAc(b1-2)[GlcNAc(b1-4)]Man(a1-3)[GlcNAc(b1-4)][GlcNAc(b1-2)Man(a1-6)]Man(b1-4)GlcNAc(b1-4)GlcNAc
# Outline: as §1
# [11] = molecular target: GlcNAc(b1-2)[GlcNAc(b1-4)]Man(a1-3)[GlcNAc(b1-4)][GlcNAc(b1-2)[GlcNAc(b1-6)]Man(a1-6)]Man(b1-4)GlcNAc(b1-4)GlcNAc
# Outline: as §1
# [12] = molecular target: GlcNAc(b1-2)[GlcNAc(b1-4)]Man(a1-3)[GlcNAc(b1-4)][GlcNAc(b1-2)[GlcNAc(b1-6)]Man(a1-6)]Man(b1-4)GlcNAc(b1-4)[Fuc(a1-6)]GlcNAc
# Outline: as §1
# [13] = molecular target: GlcNAc(b1-2)[GlcNAc(b1-6)]Man(a1-6)[GlcNAc(b1-2)Man(a1-3)]Man(b1-4)GlcNAc(b1-4)GlcNAc
# Outline: as §1
# [14] = molecular target: GlcNAc(b1-2)[GlcNAc(b1-6)]Man(a1-6)[GlcNAc(b1-2)Man(a1-3)]Man(b1-4)GlcNAc(b1-4)[Fuc(a1-6)]GlcNAc
# Outline: as §1
# [15] = molecular target: GlcNAc(b1-2)[GlcNAc(b1-6)]Man(a1-6)[GlcNAc(b1-2)Man(a1-3)][GlcNAc(b1-4)]Man(b1-4)GlcNAc(b1-4)GlcNAc
# Outline: as §1
# [16] = molecular target: GlcNAc(b1-2)[GlcNAc(b1-6)]Man(a1-6)[GlcNAc(b1-4)][GlcNAc(b1-2)Man(a1-3)]Man(b1-4)GlcNAc(b1-4)GlcNAc
# Outline: as §1
# [17] = molecular target: GlcNAc(b1-3)Fuc
# Outline: as §1
# [18] = molecular target: GlcNAc(b1-3)Gal
# Outline: as §1
# [19] = molecular target: GlcNAc(b1-3)Gal(b1-3)GalNAc
# Outline: as §1
# [20] = molecular target: GlcNAc(b1-3)Gal(b1-4)Glc
# Outline: as §1
# [21] = molecular target: GlcNAc(b1-3)Gal(b1-4)GlcNAc
# Outline: as §1
# [22] = molecular target: GlcNAc(b1-3)Gal(b1-4)GlcNAc(b1-2)Man(a1-3)[GlcNAc(b1-3)Gal(b1-4)GlcNAc(b1-2)Man(a1-6)]Man(b1-4)GlcNAc(b1-4)GlcNAc
# Outline: as §1
# [23] = molecular target: GlcNAc(b1-3)Gal(b1-4)GlcNAc(b1-2)Man(a1-3)[GlcNAc(b1-3)Gal(b1-4)GlcNAc(b1-2)Man(a1-6)]Man(b1-4)GlcNAc(b1-4)[Fuc(a1-6)]GlcNAc
# Outline: as §1
# [24] = molecular target: GlcNAc(b1-3)Gal(b1-4)GlcNAc(b1-2)[GlcNAc(b1-3)Gal(b1-4)GlcNAc(b1-6)]Man(a1-6)[GlcNAc(b1-3)Gal(b1-4)GlcNAc(b1-2)Man(a1-3)]Man(b1-4)GlcNAc(b1-4)GlcNAc
# Outline: as §1
# [25] = molecular target: GlcNAc(b1-3)Gal(b1-4)GlcNAc(b1-3)Gal(b1-4)GlcNAc
# Outline: as §1
# [26] = molecular target: GlcNAc(b1-3)Gal(b1-4)GlcNAc(b1-3)Gal(b1-4)GlcNAc(b1-2)Man(a1-3)[GlcNAc(b1-3)Gal(b1-4)GlcNAc(b1-3)Gal(b1-4)GlcNAc(b1-2)Man(a1-6)]Man(b1-4)GlcNAc(b1-4)GlcNAc
# Outline: as §1
# [27] = molecular target: GlcNAc(b1-3)Gal(b1-4)GlcNAc(b1-3)Gal(b1-4)GlcNAc(b1-2)Man(a1-3)[GlcNAc(b1-3)Gal(b1-4)GlcNAc(b1-3)Gal(b1-4)GlcNAc(b1-2)Man(a1-6)]Man(b1-4)GlcNAc(b1-4)[Fuc(a1-6)]GlcNAc
# Outline: as §1
# [28] = molecular target: GlcNAc(b1-3)Gal(b1-4)GlcNAc(b1-3)Gal(b1-4)GlcNAc(b1-2)[GlcNAc(b1-3)Gal(b1-4)GlcNAc(b1-3)Gal(b1-4)GlcNAc(b1-6)]Man(a1-6)[GlcNAc(b1-3)Gal(b1-4)GlcNAc(b1-3)Gal(b1-4)GlcNAc(b1-2)Man(a1-3)]Man(b1-4)GlcNAc(b1-4)[Fuc(a1-6)]GlcNAc
# Outline: as §1
# [29] = molecular target: GlcNAc(b1-3)Gal(b1-4)GlcNAc(b1-3)Gal(b1-4)GlcNAc(b1-3)Gal(b1-4)GlcNAc(b1-2)Man(a1-3)[GlcNAc(b1-3)Gal(b1-4)GlcNAc(b1-3)Gal(b1-4)GlcNAc(b1-3)Gal(b1-4)GlcNAc(b1-2)Man(a1-6)]Man(b1-4)GlcNAc(b1-4)GlcNAc
# Outline: as §1
# [30] = molecular target: GlcNAc(b1-3)Gal(b1-4)GlcNAc(b1-3)Gal(b1-4)GlcNAc(b1-3)Gal(b1-4)GlcNAc(b1-2)Man(a1-3)[GlcNAc(b1-3)Gal(b1-4)GlcNAc(b1-3)Gal(b1-4)GlcNAc(b1-3)Gal(b1-4)GlcNAc(b1-2)Man(a1-6)]Man(b1-4)GlcNAc(b1-4)[Fuc(a1-6)]GlcNAc
# Outline: as §1
# [31] = molecular target: GlcNAc(b1-3)Gal(b1-4)GlcNAc(b1-3)Gal(b1-4)GlcNAc(b1-3)Gal(b1-4)GlcNAc(b1-2)[GlcNAc(b1-3)Gal(b1-4)GlcNAc(b1-3)Gal(b1-4)GlcNAc(b1-3)Gal(b1-4)GlcNAc(b1-6)]Man(a1-6)[GlcNAc(b1-3)Gal(b1-4)GlcNAc(b1-3)Gal(b1-4)GlcNAc(b1-3)Gal(b1-4)GlcNAc(b1-2)Man(a1-3)]Man(b1-4)GlcNAc(b1-4)[Fuc(a1-6)]GlcNAc
# Outline: as §1
# [32] = molecular target: GlcNAc(b1-3)Gal(b1-4)GlcNAc(b1-3)Gal(b1-4)GlcNAc(b1-3)Gal(b1-4)GlcNAc(b1-3)Gal(b1-4)GlcNAc(b1-2)Man(a1-3)[GlcNAc(b1-3)Gal(b1-4)GlcNAc(b1-3)Gal(b1-4)GlcNAc(b1-3)Gal(b1-4)GlcNAc(b1-3)Gal(b1-4)GlcNAc(b1-2)Man(a1-6)]Man(b1-4)GlcNAc(b1-4)GlcNAc
# Outline: as §1
# [33] = molecular target: GlcNAc(b1-3)Gal(b1-4)GlcNAc(b1-3)Gal(b1-4)GlcNAc(b1-3)Gal(b1-4)GlcNAc(b1-3)Gal(b1-4)GlcNAc(b1-2)Man(a1-3)[GlcNAc(b1-3)Gal(b1-4)GlcNAc(b1-3)Gal(b1-4)GlcNAc(b1-3)Gal(b1-4)GlcNAc(b1-3)Gal(b1-4)GlcNAc(b1-2)Man(a1-6)]Man(b1-4)GlcNAc(b1-4)[Fuc(a1-6)]GlcNAc
# Outline: as §1
# [34] = molecular target: GlcNAc(b1-3)Gal(b1-4)GlcNAc(b1-3)Gal(b1-4)GlcNAc(b1-3)Gal(b1-4)GlcNAc(b1-3)Gal(b1-4)GlcNAc(b1-2)[GlcNAc(b1-3)Gal(b1-4)GlcNAc(b1-3)Gal(b1-4)GlcNAc(b1-3)Gal(b1-4)GlcNAc(b1-3)Gal(b1-4)GlcNAc(b1-6)]Man(a1-6)[GlcNAc(b1-3)Gal(b1-4)GlcNAc(b1-3)Gal(b1-4)GlcNAc(b1-3)Gal(b1-4)GlcNAc(b1-3)Gal(b1-4)GlcNAc(b1-2)Man(a1-3)]Man(b1-4)GlcNAc(b1-4)[Fuc(a1-6)]GlcNAc
# Outline: as §1
# [35] = molecular target: GlcNAc(b1-3)Gal(b1-4)GlcNAc(b1-3)Gal(b1-4)GlcNAc(b1-3)GalNAc
# Outline: as §1
# [36] = molecular target: GlcNAc(b1-3)Gal(b1-4)GlcNAc(b1-3)GalNAc
# Outline: as §1
# [37] = molecular target: GlcNAc(b1-3)Gal(b1-4)GlcNAc(b1-3)[GlcNAc(b1-3)Gal(b1-4)GlcNAc(b1-3)]GalNAc
# Outline: as §1
binder,measurement,setting,value
B1,glycan array binding signal (z-score),[1],-0.161
same,glycan array binding signal (z-score),[2],1.95
same,glycan array binding signal (z-score),[3],-0.513
same,glycan array binding signal (z-score),[4],-0.419
same,glycan array binding signal (z-score),[5],0.112
same,glycan array binding signal (z-score),[6],0.544
same,glycan array binding signal (z-score),[7],-0.643
same,glycan array binding signal (z-score),[8],-0.101
same,glycan array binding signal (z-score),[9],-0.687
same,glycan array binding signal (z-score),[10],-0.721
same,glycan array binding signal (z-score),[11],-0.611
same,glycan array binding signal (z-score),[12],-0.612
same,glycan array binding signal (z-score),[13],0.099
same,glycan array binding signal (z-score),[14],0.713
same,glycan array binding signal (z-score),[15],0.034
same,glycan array binding signal (z-score),[16],-0.167
same,glycan array binding signal (z-score),[17],-0.292
same,glycan array binding signal (z-score),[18],-0.533
same,glycan array binding signal (z-score),[19],-0.052
same,glycan array binding signal (z-score),[20],0.118
same,glycan array binding signal (z-score),[21],-0.228
same,glycan array binding signal (z-score),[22],-0.076
same,glycan array binding signal (z-score),[23],0.131
same,glycan array binding signal (z-score),[24],2.14
same,glycan array binding signal (z-score),[25],-1
same,glycan array binding signal (z-score),[26],1.29
same,glycan array binding signal (z-score),[27],1.91
same,glycan array binding signal (z-score),[28],0.832
same,glycan array binding signal (z-score),[29],0.141
same,glycan array binding signal (z-score),[30],0.473
same,glycan array binding signal (z-score),[31],1.07
same,glycan array binding signal (z-score),[32],0.27
same,glycan array binding signal (z-score),[33],0.614
same,glycan array binding signal (z-score),[34],1.18
same,glycan array binding signal (z-score),[35],-0.449
same,glycan array binding signal (z-score),[36],-0.625
same,glycan array binding signal (z-score),[37],-0.192

# Rewritten as tab-separated lines: entries from further up
binder	measurement	setting	value
B1	glycan array binding signal (z-score)	[8]	-0.101
same	glycan array binding signal (z-score)	[9]	-0.687
